{
  "sequences": {"note": "The chains behind the UniProt entries cited, without tags or fusion partners. Residues count along the entry.", "UniProt P01942, residues 2-142": "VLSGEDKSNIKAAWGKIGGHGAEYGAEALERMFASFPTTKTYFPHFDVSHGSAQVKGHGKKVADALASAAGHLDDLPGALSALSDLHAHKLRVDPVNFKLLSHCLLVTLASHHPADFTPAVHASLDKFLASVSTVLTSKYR", "UniProt P68871, residues 2-147": "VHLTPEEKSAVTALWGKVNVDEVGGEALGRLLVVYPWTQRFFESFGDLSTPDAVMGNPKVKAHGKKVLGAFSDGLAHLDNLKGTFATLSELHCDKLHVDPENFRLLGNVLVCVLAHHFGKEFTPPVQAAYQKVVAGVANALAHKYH"},
  "source": "patent US20200368370A1",
  "target": "murine α globin (mouse) (UniProt P01942)",
  "test": "isoelectric focusing of RBC lysates",
  "note": "Results are given in words; binding and its absence hold for the method and conditions named. Some entries that bind do so weakly or less than the wild type.",
  "data": [
    {"substance": "wild-type human β globin (from UniProt P68871 2-147)", "values": [
      {"measurement": "binding", "result": "binds"}
    ]}
  ]
}
